From PubChem BioAssay AID595 (National Center for Advancing Translational Sciences (NCATS), 2007)
In all, about 71,000 compounds went through this assay and about 310 (0.44%) were called active. Inconclusive results, whose numbers are uncertain, are shown with a selection of clear calls. Calls come from the whole dose curve; as a rule, active = well fitted curve in either direction with a large enough effect; inconclusive = small, poorly fitted or top-dose-only effect, or another doubt; inactive = flat fitted curve, though single readings scatter. Potencies beside an inconclusive call are fits to weak or partial responses and may not hold up.
% is set by controls: 0 for no effect and ±100 for the full control effect; potency is the fitted concentration of half-maximal effect.

The compounds below were run on Hsp90 C-terminal peptide / TPR2A (Hop) interaction, human (assay: qHTS Assay for Disrupters of an Hsp90 Co-Chaperone Interaction). Conditions: AlphaScreen TPR2A-His6 binding biotin-Hsp90 C-terminal peptide; activity change, negative = inhibition: at 57 µM (top of the series) unless noted.
In the case of `O=C(CCc1ccccc1)Nc1ncn[nH]1`, the Potency is reported as inconclusive: 15.8 µM [inhibitor, partial curve]. For `CCOC(=O)CSc1nc2ccc(N3CCOCC3)cc2c(=O)n1Cc1ccc2c(c1)OCO2`, the activity change, negative = inhibition was inconclusive: 34.3%. With `COC(=O)c1c(-c2cccs2)csc1NC(=O)c1cccnc1` the Potency was inconclusive: 39.8 µM [activator, single point]. `COC(=O)C1C(=O)C2=C(CC1C)NC(C)=C(C(=O)OC1CCCCC1)C2c1ccc(N(C)C)cc1` (stereo unspecified) was tested, and the Potency was inconclusive: 31.6 µM [inhibitor, single point]. For `N#Cc1nc(Cc2ccccc2)oc1N1CCN(c2ccccc2)CC1`, the Potency was inconclusive: 10 µM [inhibitor, partial curve]. In the case of `CCOc1ccc2nc(N3CCCC(C(=O)NCCCN4CCOCC4)C3)sc2c1` (stereo unspecified), the activity change, negative = inhibition is reported as inconclusive: 31.7%. In the case of `COC(=O)Cc1[nH]nc2c1C(c1c[nH]c3ccccc13)C(C#N)=C(N)O2` (stereo unspecified), the activity change, negative = inhibition is reported as inconclusive: 34.3%. With `CN(CC(=O)NC1CCCCCC1)S(=O)(=O)c1ccccc1` the activity change, negative = inhibition was inconclusive: 42%. In the case of `Cc1ccccc1-c1nnc(SCc2ccc(F)cc2)o1`, the Potency is reported as inconclusive: 31.6 µM [activator, single point]. For `O=C(CCNC(=O)c1ccc(Br)o1)NCc1ccccn1`, the Potency was inconclusive: 39.8 µM [inhibitor, single point]. `CC(=O)Nc1nc2c(c3c1c(=O)oc1ccccc13)CCCC2` was tested, and the activity change, negative = inhibition was inconclusive: 46.7%. `CCOC(=O)C1CCN(Cc2ccccc2C(F)(F)F)CC1` was tested, and the “activity change, negative = inhibition” value was inactive: 0.116%. In the case of `Cc1noc(C)c1-c1nccc(NCc2cccnc2)n1`, the “activity change, negative = inhibition” value is reported as inactive: 1.93%. With `CC(C)(C)C(=O)/C=C(\N)c1ccncc1` the activity change, negative = inhibition was inconclusive: 42.7%. For `CC1CCN(c2nc(-c3ccco3)c3c(c2C#N)CC(C)(C)OC3)CC1`, the Potency was active: 25.1 µM [activator]. With `CC1CCCCN1S(=O)(=O)c1ccc2c(c1)oc(=O)n2CC(=O)O` (stereo unspecified) the activity change, negative = inhibition was inconclusive: 39.4%. With `COc1cc2c(cc1OC)C1=C(C#N)CCC(=O)N1CC2` the activity change, negative = inhibition was inconclusive: 35.8%. With `CCOC(=O)c1c(NC(=O)c2ccc(Br)o2)sc(C)c1CC` the Potency was inconclusive: 25.1 µM [activator, partial curve]. `COc1ccc2[nH]cc(CCNc3ccnc(-c4ccc(N(C)C)cc4)n3)c2c1` was tested, and the Potency was inconclusive: 25.1 µM [inhibitor, single point]. In the case of `CC(C)c1cccc2c([Si](C)(C)C)c3c(nc12)-c1cccc(=O)n1C3`, the Potency is reported as inconclusive: 25.1 µM [activator, single point]. `CC(=O)N1CCN(C(C)=O)C1c1ccccc1` was tested, and the activity change, negative = inhibition was inconclusive: 51.7% [at 11 µM]. In the case of `CCOC(=O)c1cnc(-n2nc(C)cc2C)nc1N1CCOCC1`, the Potency is reported as inconclusive: 20 µM [inhibitor, single point]. With `COc1cc(-c2noc(-c3ccco3)n2)cc(OC)c1OC` the “activity change, negative = inhibition” value was inactive: -3.26%. For `Cc1nonc1NC(=O)CSc1ccc(-c2ccccc2)nn1`, the activity change, negative = inhibition was inconclusive: 39.6%. For `Fc1ccc(CSc2nnc(-c3cnccn3)n2Cc2ccco2)cc1`, the “activity change, negative = inhibition” value was inactive: -7.19%. With `CN(C(=O)c1ccno1)c1nnc(-c2cnccn2)s1` the activity change, negative = inhibition was inconclusive: -40.4%. For `Cc1ccnc(N2CCN(C(=O)CSc3nc4ccccc4nc3N3CCCCC3)CC2)c1`, the Potency was inconclusive: 31.6 µM [activator, single point]. In the case of `O=C(c1ccncc1)N1CCC2(CC1)CN(c1cccc(-c3ccccc3)c1)C2`, the Potency is reported as inconclusive: 25.1 µM [inhibitor, single point]. `CC1CCCC(NC(=O)c2n[nH]c(=O)c3ccccc23)C1C` (stereo unspecified) was tested, and the activity change, negative = inhibition was inconclusive: 60.3%. In the case of `CCn1c(=O)cc(OCC(=O)N2CCN(C(=O)c3ccco3)CC2)c2ccccc21`, the activity change, negative = inhibition is reported as inconclusive: 37.1%. `COc1ccccc1NC(=O)c1ccc(CN2CCOCC2)cc1` was tested, and the “activity change, negative = inhibition” value was inactive: -0.303%. In the case of `O=C1CCC(C(=O)NCCCn2ccnc2)N1` (stereo unspecified), the Potency is reported as inconclusive: 31.6 µM [inhibitor, partial curve]. `CN(C)c1ccc(-c2nc(-n3ccnc3)c3ccccc3n2)cc1` was tested, and the Potency was inconclusive: 25.1 µM [activator, single point]. With `NC(=O)C(F)(F)C12OC3C4C5CC(C6C5C3C61)C42` (stereo unspecified) the activity change, negative = inhibition was inconclusive: 45.6%. For `CCC1CCCCN1CCNC(=O)CNS(=O)(=O)c1ccc2nc(C)sc2c1` (stereo unspecified), the activity change, negative = inhibition was inconclusive: 49.5%. With `CC(C)[C@@H](CC(=O)N[C@@H]1CCNC[C@H]1C(=O)N[C@H](CC(=O)N[C@@H](CCC(=O)O)CC(=O)O)Cc1ccccc1)NC(=O)C[C@H](Cc1c[nH]c2ccccc12)NC(=O)[C@@H]1CCCC[C@H]1N` the Potency was active: 31.6 µM. With `O=C(c1ccncc1)c1ccc(Br)cc1` the “activity change, negative = inhibition” value was inactive: 0.143%. `NC(=O)c1cccc2c3c([nH]c12)CCCC3` was tested, and the activity change, negative = inhibition was inconclusive: 6.21%. `O=C(c1ccc(Br)o1)N1CCN(c2ccc3nnc(-c4ccccc4)n3n2)CC1` was tested, and the activity change, negative = inhibition was inconclusive: 16%. With `Cc1cc(Nc2ccccc2)nc(-c2ccccc2O)n1` the Potency was inconclusive: 25.1 µM [activator, single point]. For `CCCn1c(CN2CCCCC2CC)nc2c1c(=O)n(C)c(=O)n2C` (stereo unspecified), the activity change, negative = inhibition was inconclusive: 0.563%. In the case of `Cc1cc(C)c2cc(C#N)c(N3CCCC3)nc2c1`, the Potency is reported as inconclusive: 25.1 µM [activator, partial curve]. With `Cc1cc(C(=O)N[C@H](c2ccccc2)[C@@]2(C)C[C@@H]2[C@@H](C)C(=O)Nc2ccc3ccccc3c2)no1` the “activity change, negative = inhibition” value was inactive: -10.3%. `CSc1nc2nc(-c3ccccc3)cc(C(F)(F)F)n2n1` was tested, and the “activity change, negative = inhibition” value was inactive: 18.4%. In the case of `COc1ccc(F)cc1S(=O)(=O)NC1CCCCCC1`, the “activity change, negative = inhibition” value is reported as inactive: 1.28%. For `CC1=C(C(N)=O)C(c2ccco2)C(C(N)=O)=C(C)N1`, the “activity change, negative = inhibition” value was inactive: -3.78%. In the case of `O=C(COc1ccccc1Cl)NC(=O)NC1CCCC1`, the activity change, negative = inhibition is reported as inconclusive: 43.3%. In the case of `CCOC(=O)c1c(C)oc2c1c(C=NCc1ccccn1)c(O)c1ccccc12`, the Potency is reported as inconclusive: 12.6 µM [inhibitor, partial curve]. `CCOC(=O)Cn1nnnc1C(CC)N(Cc1cccs1)Cc1cc2cc(C)ccc2[nH]c1=O` (stereo unspecified) was tested, and the “activity change, negative = inhibition” value was inactive: -1.4%. With `O=C(C[n+]1ccc2ccccc2c1)c1ccc2ccc3ccccc3c2c1` the activity change, negative = inhibition was inactive: -4.64% [at 11 µM]. With `N[C@@H]1C=CC=C(C(=O)O)C1` the activity change, negative = inhibition was inconclusive: 66.8%.
